Test results published in paper PMC4868709.
These are yes or no findings as the source states them, for the method shown. Binding seen in cells or lysates may run through a third protein. Some results given as binding are weak or reduced against the parent protein; the word gives no strength.

Chains of the proteins cited; added tags and fusions are not shown.
UniProt Q8IZD9: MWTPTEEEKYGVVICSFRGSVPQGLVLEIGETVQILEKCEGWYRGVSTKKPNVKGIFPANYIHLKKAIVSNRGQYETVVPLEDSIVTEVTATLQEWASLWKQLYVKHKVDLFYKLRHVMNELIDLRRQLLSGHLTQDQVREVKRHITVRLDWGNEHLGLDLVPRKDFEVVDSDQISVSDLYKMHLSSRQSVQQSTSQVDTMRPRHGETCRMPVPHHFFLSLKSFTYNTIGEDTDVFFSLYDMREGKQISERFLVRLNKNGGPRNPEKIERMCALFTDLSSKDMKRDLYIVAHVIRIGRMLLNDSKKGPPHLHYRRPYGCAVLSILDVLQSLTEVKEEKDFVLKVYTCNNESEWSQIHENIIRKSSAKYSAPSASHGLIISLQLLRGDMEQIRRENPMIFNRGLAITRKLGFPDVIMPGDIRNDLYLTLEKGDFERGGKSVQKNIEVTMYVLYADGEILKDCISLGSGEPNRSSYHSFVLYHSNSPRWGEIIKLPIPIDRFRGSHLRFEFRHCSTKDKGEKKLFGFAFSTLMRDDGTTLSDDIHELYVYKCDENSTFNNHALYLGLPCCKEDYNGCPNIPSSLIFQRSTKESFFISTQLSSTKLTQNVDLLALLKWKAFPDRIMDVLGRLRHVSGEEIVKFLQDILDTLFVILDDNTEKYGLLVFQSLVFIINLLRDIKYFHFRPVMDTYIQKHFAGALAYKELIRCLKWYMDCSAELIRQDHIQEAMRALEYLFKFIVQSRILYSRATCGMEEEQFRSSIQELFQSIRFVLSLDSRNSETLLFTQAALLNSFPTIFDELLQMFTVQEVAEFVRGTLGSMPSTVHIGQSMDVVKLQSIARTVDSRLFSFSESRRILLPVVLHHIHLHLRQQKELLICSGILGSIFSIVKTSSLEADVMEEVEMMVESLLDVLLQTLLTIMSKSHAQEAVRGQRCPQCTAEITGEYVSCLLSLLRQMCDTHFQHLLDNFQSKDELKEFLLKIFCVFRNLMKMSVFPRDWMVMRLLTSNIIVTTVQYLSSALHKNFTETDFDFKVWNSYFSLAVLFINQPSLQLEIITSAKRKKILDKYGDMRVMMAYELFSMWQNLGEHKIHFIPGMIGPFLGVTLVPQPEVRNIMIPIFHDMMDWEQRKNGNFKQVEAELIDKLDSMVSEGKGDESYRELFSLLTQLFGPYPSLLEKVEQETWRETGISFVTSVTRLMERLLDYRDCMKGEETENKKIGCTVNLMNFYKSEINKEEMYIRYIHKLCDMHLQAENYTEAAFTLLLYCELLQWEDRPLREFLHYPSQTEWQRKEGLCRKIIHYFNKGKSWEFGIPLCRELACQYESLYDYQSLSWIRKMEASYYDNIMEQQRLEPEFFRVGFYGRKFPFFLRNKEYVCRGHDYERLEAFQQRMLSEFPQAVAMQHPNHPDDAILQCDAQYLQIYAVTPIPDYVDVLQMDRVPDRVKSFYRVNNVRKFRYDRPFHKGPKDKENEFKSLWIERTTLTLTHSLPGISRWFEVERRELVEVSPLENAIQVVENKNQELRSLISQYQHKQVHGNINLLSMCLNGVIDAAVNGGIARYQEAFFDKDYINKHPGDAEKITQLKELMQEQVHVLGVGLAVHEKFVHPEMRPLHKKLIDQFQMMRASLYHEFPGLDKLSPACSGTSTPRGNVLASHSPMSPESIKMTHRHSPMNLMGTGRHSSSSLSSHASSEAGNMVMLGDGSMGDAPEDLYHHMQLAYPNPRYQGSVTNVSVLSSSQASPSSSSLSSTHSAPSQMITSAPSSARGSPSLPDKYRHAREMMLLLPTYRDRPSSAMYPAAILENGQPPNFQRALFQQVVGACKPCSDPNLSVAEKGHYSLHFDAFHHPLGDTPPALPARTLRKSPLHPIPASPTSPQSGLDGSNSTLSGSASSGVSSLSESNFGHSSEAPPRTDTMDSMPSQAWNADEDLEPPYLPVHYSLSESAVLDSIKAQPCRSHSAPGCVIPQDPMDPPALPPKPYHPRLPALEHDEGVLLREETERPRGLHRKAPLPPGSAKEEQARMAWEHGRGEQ
UniProt P61586: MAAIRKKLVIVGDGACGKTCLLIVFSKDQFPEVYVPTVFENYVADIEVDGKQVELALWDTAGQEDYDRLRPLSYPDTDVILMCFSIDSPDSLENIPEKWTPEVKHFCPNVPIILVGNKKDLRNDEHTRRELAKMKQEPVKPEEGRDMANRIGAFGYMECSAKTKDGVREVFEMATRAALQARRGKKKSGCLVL

Target: dedicator of cytokinesis 3 (DOCK3) (human (endogenous; the cell line is not named, all lines used are human)) (UniProt Q8IZD9)
Assay: co-IP; co-immunoprecipitation of endogenous proteins, Western blot

RhoA (from UniProt P61586 1-193)
binding: binds weakly
